Laboratory results: PubChem BioAssay AID2685 (National Center for Advancing Translational Sciences (NCATS), 2010)
The other results are listed elsewhere or left out. These are further read-outs of the screen, such as a control signal, another cell line or another target. No call is given for them. The list favours compounds with an active or inconclusive main result. The note in brackets gives the kind of curve behind each potency; many fits are weak.

Assay: qHTS Assay for Lipid Storage Modulators in Drosophila S3 Cells;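 for cell number change: cells counted by Cell Tracker Red CMTPX staining in the red channel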
Conditions: BODIPY lipid droplet fluorescence, 18-24 h; for cell number change: measured here: cell count max response, cells fed with added oleic acid
Method in brief: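 Drosophila S3 cells loaded with oleic acid (400 uM, as added) and compounds at several concentrations; lipid droplets imaged by 488-nm laser-scanning cytometry, 500–530 nm intensity and object ratio to cell channel. Percent activity normalized to 20 uM Triacsin C.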

[1] = measured here: cell number channel AC50, cells fed with added oleic acid
[2] = measured here: lipid fluorescence (Fed channel) AC50, cells fed with added oleic acid

Row | SMILES | cell number change [%] | AC50 [1] | AC50 [2]
1 | S=c1[nH]ncn1/N=C/c1ccccn1 | -42.3 | 3.66 µM [falling, full curve] | 18.4 µM [falling, single point]
2 | CCC(=O)N(C(=O)CC)N1CCN(c2ccncc2S(=O)(=O)N2CCCCC2)CC1 | -30.8 | 5.8 µM [falling, single point] | 16.4 µM [falling, partial curve, poor fit]
3 | COc1ccc(OC)c2c(C)cc(N3CCCCCC3)nc12 | -3.16 |  | 
4 | CCCN(CC(=O)Nc1ccccc1C)C(=O)c1ccc(N2CCCC2=O)cc1 | 25.7 |  | 18.4 µM [rising, partial curve]
5 | CC(=O)Nc1ccc(S(=O)(=O)N(C)c2ccccc2)cc1 | -7.22 |  | 0.00517 µM [falling, full curve, poor fit]
6 | Cc1cccc(-c2nnc(SCc3ccc(C#N)cc3)n2Cc2ccco2)c1 | -23.8 |  | 14.6 µM [falling, single point]
7 | CC1CCN(C(=O)c2ccc(NS(=O)(=O)c3ccccc3)cc2)CC1 |  | 1.84 µM [falling, partial curve] | 29.1 µM [falling, single point]
8 | O=C(c1ccc(-c2ccc([N+](=O)[O-])cc2)o1)N1CCCCCCC1 | -12.4 |  | 
9 | CN(C)C=Nc1nonc1-c1ncn[nH]1 | 1.02 |  | 29.1 µM [falling, single point]
10 | O=C(NCCC1=CCCCC1)c1cccc(S(=O)(=O)N2CCCCC2)c1 |  |  | 0.326 µM [rising, full curve]
11 | CCC(C)NC(=O)c1ccccc1NC(=O)COc1ccc(OC)cc1 (configuration not stated) |  | 1.3 µM [rising, partial curve] | 5.8 µM [rising, partial curve]
12 | Cc1ccccc1-n1c(C)c(C#N)c(=O)c(-[n+]2ccccc2)c1[S-] | -116 | 29.1 µM [falling, single point] | 23.1 µM [falling, partial curve]
13 | Cc1[nH]nc2oc(=O)c(CCO)c(C)c12 |  |  | 25.9 µM [falling, single point]
14 | COc1ccccc1NS(=O)(=O)c1cccc(C(=O)N2CCN(Cc3ccc4c(c3)OCO4)CC2)c1 | 49 | 6.51 µM [rising, full curve] | 6.51 µM [rising, single point]
15 | Cc1no[n+]([O-])c1COc1ccc(/C=N/n2nnnc2N)cc1 | -51.7 | 32.6 µM [falling, single point] | 0.651 µM [falling, full curve, poor fit]
16 | C[C@@H]1NC(=O)c2cc([N+](=O)[O-])cc(I)c2NCCCC[C@@H](C(N)=O)NC(=O)[C@H](CCC(=O)O)NC1=O |  | 4.11 µM [falling, partial curve, poor fit] | 2.91 µM [falling, partial curve, poor fit]
17 | O=C(CSc1nc(O)cc(=O)n1-c1ccccc1)NC1CCCCC1 | 35 | 8.2 µM [rising, partial curve, poor fit] | 0.58 µM [falling, single point]
18 | CCN(CC)CCn1c2c(c(SCC(=O)Nc3ccc4c(c3)OCO4)nc1=O)CCC2 |  |  | 6.51 µM [rising, single point]

Among those listed so far, 7 contain a carbonyl joined to an NH by a bond outside any ring:
Row | SMILES | cell number change [%] | AC50 [1] | AC50 [2]
4 | CCCN(CC(=O)Nc1ccccc1C)C(=O)c1ccc(N2CCCC2=O)cc1 | 25.7 |  | 18.4 µM [rising, partial curve]
5 | CC(=O)Nc1ccc(S(=O)(=O)N(C)c2ccccc2)cc1 | -7.22 |  | 0.00517 µM [falling, full curve, poor fit]
10 | O=C(NCCC1=CCCCC1)c1cccc(S(=O)(=O)N2CCCCC2)c1 |  |  | 0.326 µM [rising, full curve]
11 | CCC(C)NC(=O)c1ccccc1NC(=O)COc1ccc(OC)cc1 (configuration not stated) |  | 1.3 µM [rising, partial curve] | 5.8 µM [rising, partial curve]
16 | C[C@@H]1NC(=O)c2cc([N+](=O)[O-])cc(I)c2NCCCC[C@@H](C(N)=O)NC(=O)[C@H](CCC(=O)O)NC1=O |  | 4.11 µM [falling, partial curve, poor fit] | 2.91 µM [falling, partial curve, poor fit]
17 | O=C(CSc1nc(O)cc(=O)n1-c1ccccc1)NC1CCCCC1 | 35 | 8.2 µM [rising, partial curve, poor fit] | 0.58 µM [falling, single point]
18 | CCN(CC)CCn1c2c(c(SCC(=O)Nc3ccc4c(c3)OCO4)nc1=O)CCC2 |  |  | 6.51 µM [rising, single point]

Later entries:

Row | SMILES | cell number change [%] | AC50 [1] | AC50 [2]
19 | COc1cc2ccccc2cc1C(=O)Nc1ccncc1 | -7.78 |  | 6.51 µM [falling, single point]
20 | CN(/N=C/c1ccco1)C1=NS(=O)(=O)c2ccccc21 | 3.48 | 0.092 µM [falling, full curve, poor fit] | 0.092 µM [falling, full curve, poor fit]
21 | CCCCNC(=O)[C@H]1C[C@H]1[C@@H](O)[C@H](CO)NC(=O)[C@H](COCc1ccccc1)NC(=O)OC(C)(C)C | -0.299 |  | 
22 | C/C(=N\N=C(/N)SC1CC(=O)N(c2ccccc2)C1=O)c1cccs1 (configuration not stated) | -39.4 | 32.6 µM [falling, partial curve, poor fit] | 29.1 µM [falling, partial curve, poor fit]
23 | Clc1cc(Br)ccc1OCCN1CCOCC1 | 49 | 9.2 µM [rising, partial curve] | 16.4 µM [rising, partial curve]
24 | CC(C)Cc1ccc(C(C)C(=O)Nc2ncccn2)cc1 (configuration not stated) | -13.7 | 0.13 µM [rising, partial curve, poor fit] | 
25 | O=C(O)CC(SCC(=O)NC1CCCc2ccccc21)C(=O)O (configuration not stated) | -24.9 |  | 9.2 µM [falling, partial curve]
26 | Clc1ccc(C2=NCCn3nc4ccccc4c32)cc1 | -3.5 |  | 6.51 µM [falling, single point]
27 | CN(C)c1ccc(/C=N/NC(=O)c2ccc(CN3CCOCC3)cc2)cc1Br |  | 0.82 µM [rising, single point] | 
28 | CCN(CC)S(=O)(=O)c1cc([N+](=O)[O-])ccc1N=Nc1c(O)n(C)c2ccccc12 | 4.83 |  | 
29 | CCn1cc(C(=O)NP(=O)(Nc2ccc(C)cc2)Nc2ccc(C)cc2)c2ccccc21 | -11.5 |  | 0.164 µM [falling, full curve, poor fit]
30 | CCCc1cc(=O)oc2c(C)c(OCC(=O)NC3CC(C)(C)NC(C)(C)C3)ccc12 |  |  | 29.1 µM [rising, single point]
31 | CCCn1c(N)c(C(=O)CSc2nncs2)c(=O)[nH]c1=O | 7.28 | 0.651 µM [falling, single point] | 0.651 µM [falling, single point]
32 | Cc1ccc2nc(CSc3nnc(Nc4ccccc4C)s3)cc(=O)n2c1 | 28.9 |  | 29.1 µM [rising, single point]
33 | COc1cc(N=c2ssnc2Cl)cc(OC)c1 | -60.1 | 29.1 µM [falling, single point] | 
34 | COc1cc(-c2nc3n(n2)C(c2cccc(OC)c2OC)C2=C(CCCC2=O)N3)cc(OC)c1OC (configuration not stated) | 25.2 |  | 20.6 µM [rising, single point]
35 | CCC(c1nnc(SCC(=O)NCCc2ccc(Cl)cc2Cl)o1)N(C)C (configuration not stated) | 47.6 | 1.3 µM [rising, partial curve] | 6.51 µM [rising, single point]
